The other results are listed elsewhere or left out. Further columns of the screen follow, without active or inactive calls. Most of these compounds were active or inconclusive in the main read-out, so they are no random draw. The note in brackets gives the kind of curve behind each potency; many fits are weak.
Assay: qHTS Assay to Find Inhibitors of Chronic Active B-Cell Receptor Signaling
Conditions: ABC-DLBCL IkBa-CBG/CBR reporter, luminescence ratio (green luciferase fused to IkBa over red control in TMD8 lymphoma cells), 4 h
Summary of the method: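 TMD8 human ABC-DLBCL cells with doxycycline-inducible IκBα–green luciferase fusion and unfused red luciferase, in 0.5% FBS medium; compounds up to 46 uM, 4 h at 37C. Green/red luminescence ratio, filter-overlap corrected, fitted to concentration-response curves.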

[1] = measured here: CBR red luminescence, cell number

SMILES	AC50 [1]	AC50 (measured here: IkBa-CBG green luminescence)
COc1ccc(NC(=O)NS(=O)(=O)c2ccc(C)cc2)cc1OC	20.6 µM [rising, single point]	–
Cc1cccc(OCCOCCSc2ncccn2)c1	20.6 µM [rising, partial curve, poor fit]	–
Cc1[nH]c2ccccc2c1C(Nc1nccs1)c1ccncc1 (stereo not drawn)	29.1 µM [falling, single point]	–
CCCCOC(=O)c1ccc(-c2ccc(/C=N/NC(=S)NCC)o2)cc1	1.64 µM [falling, partial curve, poor fit]	–
Cc1nc2nc(SCc3ccccc3)[nH]n2c(=O)c1CCC(C)C	10 µM [falling, partial curve]	–
CCn1c(S(=O)(=O)O)nc2ccccc21	6.31 µM [falling, single point]	–
O=C(CSCc1ccc(Cl)cc1)c1ccco1	0.708 µM [rising, full curve, poor fit]	–
CCCNC(=O)Nc1nc2ccccc2s1	7.94 µM [falling, partial curve, poor fit]	–
COc1cc2c(cc1OC)C(C)N(C(=O)c1cc3c(C)cc(C)cc3[nH]1)CC2 (stereo not drawn)	35.5 µM [falling, single point]	–
CC(C)c1ccc(NC(=O)CN2C(=O)NC3(CCCC3)C2=O)cc1	14.1 µM [rising, single point]	–
Cc1cc(C)cc(NS(=O)(=O)Cc2ccccc2)c1	28.2 µM [rising, partial curve, poor fit]	–
O=C(CSc1nc2ccccc2c(=O)n1-c1ccccc1)NCc1ccco1	20 µM [falling, partial curve, poor fit]	–
COc1cc(OC)cc(C(=O)NCC(=O)OCC(=O)NCc2ccco2)c1	20.6 µM [rising, single point]	–
COc1ccc(CN(Cc2cccn2C)C(=O)c2cc3cc(OC)ccc3[nH]2)cc1	15.8 µM [falling, single point]	–
Fc1cccc(CSc2nc3ncccc3[nH]2)c1	6.31 µM [rising, single point]	–
Cc1ccc(C(=O)COC(=O)C2CC(=O)N(c3nc(-c4ccccc4)cs3)C2)cc1 (stereo not drawn)	0.00461 µM [rising, full curve, poor fit]	–
CCCC(=O)N(c1ccc(C(=O)O)cc1)c1nc(-c2ccccc2)c(C)s1	1.41 µM [falling, full curve]	–
C[C@H](CO)N1C[C@H](C)[C@@H](CN(C)C(=O)Nc2ccccc2)Oc2ccc(NC(=O)Nc3ccc4c(c3)OCO4)cc2C1=O	20.6 µM [rising, single point]	–
Cc1cc(C(=O)NCCc2ccccc2)ccc1[N+](=O)[O-]	13 µM [falling, partial curve, poor fit]	–
COc1ccc(C(=O)NCCN2C(=O)S/C(=C\c3cccnc3)C2=O)cc1[N+](=O)[O-]	5.62 µM [rising, single point]	–
CNC1(C(N)=O)CCNCC1	0.1 µM [rising, full curve, poor fit]	–

SMILES	AC50 [1]	AC50 (measured here: IkBa-CBG green luminescence)
CC(=O)c1ccc(-n2c(C)ccc2-c2ccccc2)cc1	0.206 µM [falling, full curve, poor fit]	–
c1csc(CSc2nc3ccccc3s2)c1	2.24 µM [rising, full curve]	–
COc1ccc(/C=C/c2noc(-c3ccccc3O)n2)cc1	5.17 µM [falling, full curve]	–
O=C(OCc1cc2ccccc2[nH]c1=O)C1CCCCC1	11.2 µM [rising, partial curve, poor fit]	–
NS(=O)(=O)c1ccc(-c2cccc(/C=C3\SC(=O)NC3=O)c2)cc1	7.08 µM [falling, partial curve, poor fit]	–
Cn1c(=O)c2c(ncn2CC(=O)OCC(=O)NCc2ccc(Cl)cc2)n(C)c1=O	13 µM [falling, partial curve, poor fit]	–
CCCSC1=C(C#N)C(c2ccccc2OCC)CC(=O)N1 (stereo not drawn)	6.51 µM [falling, partial curve, poor fit]	–
Cc1nn(-c2ncc(C(F)(F)F)cc2Cl)c(=O)n1-c1cccc(Cl)c1	20.6 µM [rising, single point]	–
N#Cc1c(-c2ccccc2)c(-c2ccccc2)nn(CC(=O)NNC(=O)Nc2ccccc2)c1=O	2.82 µM [rising, partial curve, poor fit]	–
Cc1ccc(-c2ccc(/C=N/O)o2)cc1[N+](=O)[O-]	2.51 µM [rising, full curve]	–
CCc1nnc(N/N=C/c2cc(Br)c(O)cc2O)n1N	35.5 µM [falling, single point]	–
CCC(=Nc1ccccc1O)C1=C(O)CC(c2ccccc2)CC1=O (stereo not drawn)	11.2 µM [falling, partial curve]	–
CCN(CC)Cc1c(O)ccc2occ(C(=O)c3ccc(OC)cc3)c12	32.6 µM [falling, single point]	–
Cc1ccc(CSc2nc3ccccc3cc2C=O)cc1	3.16 µM [rising, full curve]	3.16 µM [falling, full curve, poor fit]
Cc1ccccc1OCCn1c(=S)[nH]c2ccccc21	5.62 µM [rising, partial curve, poor fit]	–
CCOc1cc(C(=O)Nc2ccc3c4c(cccc24)C(=O)N3CC)cc(OCC)c1OCC	0.00461 µM [rising, full curve, poor fit]	–
Cc1cccc(C)c1-n1cccc1/C=C1\SC(=S)N(c2cccc(C(=O)O)c2)C1=O	7.94 µM [falling, partial curve, poor fit]	–
COc1ccc(NC(=O)c2cc(-c3cccs3)on2)c(OC)c1	3.16 µM [rising, single point]	–
COC(=O)c1ccc(C(=O)OC)c(NC(=O)CN2CCCCC2)c1	0.1 µM [rising, full curve, poor fit]	–
CC(C)CNS(=O)(=O)c1ccc(C(=O)Nc2ccc3c(c2)OCO3)cc1	12.6 µM [falling, partial curve, poor fit]	–
FC(F)Sc1ccc(NC(=S)NC2CCCC2)cc1	11.2 µM [falling, single point]	–

Single records (already shown). Values in the order: AC50 [1] | AC50 (measured here: IkBa-CBG green luminescence)
COc1ccc(/C=C/c2noc(-c3ccccc3O)n2)cc1 reads 5.17 µM [falling, full curve] | –
COc1ccc(NC(=O)c2cc(-c3cccs3)on2)c(OC)c1 reads 3.16 µM [rising, single point] | –
